# Where “and” joins values, the source holds several entries; their conditions need not be identical. Identical values can stand only once. Hit rate of the full screen: of about 400,000 compounds, about 3,700 (0.93%) were called active. The shares of active, inactive and inconclusive entries below differ from those in the screen. Calls come from the whole dose curve; as a rule, active = well fitted inhibition curve with a large enough effect; inconclusive = small, poorly fitted or top-dose-only effect, or another doubt; inactive = no such curve, though single readings can be large or run the other way. Potencies of inconclusive entries are doubtful fits and often do not repeat.
# Sequences of proteins named here, by UniProt entry; tags and fusion partners are left off. A change or cut given only in a name is not applied to a line headed by its entry.
# UniProt P11473: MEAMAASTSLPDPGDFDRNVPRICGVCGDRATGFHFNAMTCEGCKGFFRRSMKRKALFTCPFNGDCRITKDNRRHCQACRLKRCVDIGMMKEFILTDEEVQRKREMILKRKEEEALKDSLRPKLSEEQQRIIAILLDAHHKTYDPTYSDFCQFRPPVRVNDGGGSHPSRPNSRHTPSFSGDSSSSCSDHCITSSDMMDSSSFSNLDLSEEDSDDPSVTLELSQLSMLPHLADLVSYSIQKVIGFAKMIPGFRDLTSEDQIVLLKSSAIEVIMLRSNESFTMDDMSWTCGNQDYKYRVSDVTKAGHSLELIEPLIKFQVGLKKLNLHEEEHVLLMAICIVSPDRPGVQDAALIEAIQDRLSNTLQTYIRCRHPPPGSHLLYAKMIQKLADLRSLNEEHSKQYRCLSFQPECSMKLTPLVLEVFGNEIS
# Molecular target: Vitamin D3 receptor (Homo sapiens) (UniProt P11473)
# Assay: Inhibitors of the vitamin D receptor (VDR): qHTS
# Conditions: VDR-SRC2-3 peptide fluorescence polarization, 2 h; max response, negative = inhibition: hits give low values
# Method in brief: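 Signal is fluorescence polarization, reporting how far test compounds block the interaction of VDR with the SRC2-3 coregulator peptide after a 2 h room-temperature incubation.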
# % is set by controls: 0 for no effect and ±100 for the full control effect; potency is the fitted concentration of half-maximal effect.
SMILES,"max response, negative = inhibition",Potency
Nc1c(-c2nc(-c3cccs3)no2)nnn1-c1cccc(F)c1,inactive: 1.55%,–
COCc1cc(/C=N\NC(=O)Cc2ccc(Cl)cc2)ccc1OC,–,"inconclusive: 89.1 µM [inhibitor, partial curve, poor fit]"
Cc1cc(C)c(S(=O)(=O)OC[C@H]2C=CC[C@@H](CCC[C@H]3O[C@H](C(=O)OC(C)C)CC[C@@H]3C)O2)c(C)c1,–,"inconclusive: 50.1 µM [inhibitor, partial curve]"
Cc1c(/C=C/C(=O)c2cccs2)cnn1C,–,"inconclusive: 8.91 µM [inhibitor, partial curve, poor fit]"
O=[N+]([O-])c1cc(C(F)(F)F)cc([N+](=O)[O-])c1Sc1n[nH]c(C(F)(F)F)n1,–,active: 28.2 µM
COc1ccccc1N1CCN(C(=O)c2cnn(-c3ccc(C)c(C)c3)c2C2CCN(C(=O)OC(C)(C)C)CC2)CC1,inactive: 4.04%,–
COC(=O)[C@H]1[C@H]2C[C@@H]3c4[nH]c5ccccc5c4CCN3C[C@H]2C[C@@H](OC(=O)c2cc(OC)c(OC)c(OC)c2)[C@@H]1OC,–,active: 35.5 µM
COc1ccc(C2C(Oc3ccccc3)C(=O)N2c2cc(C)ccc2C)cc1OC (stereo not drawn),inactive: -1.74%,–
C=CCn1c(=O)/c(=C/c2ccc(Cl)cc2)s/c1=C(\C#N)c1nnc2n1CCCCC2,–,"inconclusive: 50.1 µM [inhibitor, partial curve]"
CCc1sc(Nc2ccc(Cl)cc2)nc1-c1cc2cccc(OC)c2oc1=O,inactive: 14.5%,–
CCOC(=O)C1=NN(c2ccccc2)C2C(=O)N(c3ccccc3OC)C(=O)C12 (stereo not drawn),–,"inconclusive: 100 µM [inhibitor, single point]"
O=C(Nc1ccccc1)c1ccc2snnc2c1,–,"inconclusive: 63.1 µM [inhibitor, partial curve, poor fit]"
CC(=O)c1cccc(NC(=O)CSC(=O)c2ccccc2)c1,–,"inconclusive: 89.1 µM [inhibitor, single point]"
CN(C)CC(=O)Nc1ccc(S(N)(=O)=O)cc1,–,"inconclusive: 79.4 µM [inhibitor, partial curve, poor fit]"
N#C/C(=C/c1ccc(C(=O)O)cc1)C(=O)Nc1ccccc1,–,"inconclusive: 89.1 µM [inhibitor, single point]"
Cc1ccc(OCCSc2nc3ncnc(N)c3[nH]2)cc1,–,"inconclusive: 28.2 µM [inhibitor, partial curve, poor fit]"
NNC(=O)c1cc(-c2cccs2)nc2ccccc12,–,"inconclusive: 89.1 µM [inhibitor, partial curve, poor fit]"
O=C(CN1CCN(c2ccc(F)cc2)CC1)c1ccc(O)cc1O,inactive: -15.3%,–
CN(C)C(CNC(=O)c1cccc(C(F)(F)F)c1)c1ccco1 (stereo not drawn),inactive: -13.9%,–
COCCn1c(NC(=S)NC(=O)C2CC2)cc(=O)[nH]c1=O,–,"inconclusive: 89.1 µM [inhibitor, single point]"

SMILES,"max response, negative = inhibition",Potency
CCOCCCNC(=S)NCCCNc1nc2c(C)cc(C)cc2cc1C#N,–,"inconclusive: 89.1 µM [inhibitor, single point]"
CC(=O)c1ccc(N2CCN(C(=O)c3nn(C)c4c3CS(=O)(=O)c3ccccc3-4)CC2)cc1,–,"inconclusive: 39.8 µM [inhibitor, single point]"
COc1ccc(Nc2nnc(-c3ccc(O)cc3)c3ccccc23)cc1C(N)=O,inactive: -9.99%,–
O=C(CN1C(=O)/C(=C2/SC(=S)N(CCS(=O)(=O)O)C2=O)c2ccccc21)Nc1cccc(C(F)(F)F)c1,–,"inconclusive: 10 µM [inhibitor, partial curve, poor fit]"
C[C@]12CC[C@@H]3c4ccc(O)cc4C[C@@H](CCCCCCCCCS(=O)CCCC(F)(F)C(F)(F)F)C3[C@@H]1CC[C@@H]2O (stereo partly drawn),inactive: -2.01%,–
CCOC(=O)C1=C(C)NC(C)=C(C(=O)OC)[C@@H]1c1cccc([N+](=O)[O-])c1,–,"inconclusive: 39.8 µM [inhibitor, partial curve, poor fit]"
COC(=O)c1cc(C)nc2c1C(=O)C(=O)C=C2N1CCOCC1,–,"inconclusive: 22.4 µM [inhibitor, full curve, poor fit]"
S=c1[nH]nc(-c2ccc(Br)cc2)n1Cc1ccccc1,–,"inconclusive: 56.2 µM [inhibitor, partial curve, poor fit]"
O=c1oc2ccccc2nc1/C=C(O)/C=C\c1ccccc1,–,"inconclusive: 89.1 µM [inhibitor, single point]"
CC(C)CC(COCc1ccc(Cl)cc1)N1CCN(C(=O)c2ccc(C(F)(F)F)cc2)CCC1=O (stereo not drawn),–,"inconclusive: 50.1 µM [inhibitor, partial curve, poor fit]"
COCCOC(=O)C1=C(C)NC(C)=C(C(=O)OC(C)C)C1c1cccc([N+](=O)[O-])c1 (stereo not drawn),–,"inconclusive: 89.1 µM [inhibitor, single point]"
COCCCNC(=S)NNC(=S)Nc1ccccc1,–,"inconclusive: 79.4 µM [inhibitor, single point]"
NC(=O)c1cc(N2C(=O)C=CC2=O)ccc1Cl,–,active: 20 µM
COc1cccc(C(=O)NCCS(=O)(=O)N2CC(C)CC(C)C2)c1 (stereo not drawn),–,"inconclusive: 89.1 µM [inhibitor, single point]"
C/C=C(\C)C(=O)OC1CC(C)(C)C[C@H]2C3=CC[C@@H]4[C@@]5(C)CCC(O[C@@H]6O[C@@H](C(=O)O)[C@@H](O)C(O[C@@H]7OC[C@H](O)[C@@H](O)[C@@H]7O[C@@H]7OC(CO)C(O)[C@@H](O)[C@@H]7O)C6O[C@@H]6OC(CO)C(O)C(O)C6O)[C@@](C)(CO)[C@@H]5CC[C@]4(C)[C@]3(C)CC(O)[C@@]12CO (stereo partly drawn),–,"inconclusive: 89.1 µM [inhibitor, single point]"
c1ccc2c(-c3[nH]ncc3CNCCCn3ncc4ccccc43)cccc2c1,–,"inconclusive: 79.4 µM [inhibitor, partial curve, poor fit]"
S=c1[nH]c2ccc(Cl)cc2[nH]1,–,"inconclusive: 89.1 µM [inhibitor, partial curve, poor fit]"
CCOc1ccc(CCNC(=O)CCS(=O)(=O)c2ccc(Cl)cc2)cc1OCC,–,"inconclusive: 39.8 µM [inhibitor, partial curve, poor fit]"
CC1(OC(=O)C2CCCC2)C(=O)C=C2C=C(c3ccsc3)N(Cc3ccco3)C=C2C1=O (stereo not drawn),–,"inconclusive: 39.8 µM [inhibitor, partial curve, poor fit]"

SMILES,"max response, negative = inhibition",Potency
COc1ccccc1CCC(=O)Nc1cc(S(=O)(=O)N2CCOCC2)ccc1N1CCCC1,inactive: 0.787%,–
CCc1ccc(-n2c(Cc3ccccc3)n[nH]c2=S)cc1,inactive: -17.7%,–
CC1CCN(C(=O)COC(=O)Cn2cnc3ccccc32)CC1,–,"inconclusive: 89.1 µM [inhibitor, single point]"
C(=C\c1nc(-c2ccccc2)oc1Nc1ccc2ccccc2c1)/c1ccccc1,inactive: 0.19%,–
Cc1ccc(-c2nc(CS(=O)CC(=O)NCc3ccccn3)c(C)o2)cc1 (stereo not drawn),–,"inconclusive: 100 µM [inhibitor, single point]"
O=C(CCc1nnc(CCc2c[nH]c3ccccc23)o1)NC1CCC1,–,"inconclusive: 15.8 µM [inhibitor, partial curve, poor fit]"
CCn1c2ccccc2c2nc3cc(S(=O)(=O)N4CCOCC4)ccc3nc21,–,active: 28.2 µM
CC1(C)CC(=O)C(C(c2ccc(Br)cc2)C2C(=O)CC(C)(C)CC2=O)C(=O)C1,–,active: 25.1 µM
COc1ccc(-c2coc3cc(O)ccc3c2=O)c(O)c1O,–,active: 50.1 µM
COC(=O)c1ccc(NC(=O)N2CCc3c([nH]c4ccccc34)C2c2ccc(C)cc2)cc1 (stereo not drawn),inactive: 8.73%,–
CCC(C)NC(=O)COC(=O)c1csc2c1CCCC2 (stereo not drawn),inactive: -7.31%,–
CC1CCC(C(C)C)C2=C1C(C#N)(C#N)C(C#N)(C#N)C(c1ccccc1)N2 (stereo not drawn),–,active: 89.1 µM
Cc1cccc(C)c1NC(=O)CSCC(=O)c1ccc(O)c(O)c1,–,"inconclusive: 79.4 µM [inhibitor, single point]"
COc1ccc(S(=O)(=O)N2CCN(C(=O)NCc3ccccc3)CC2)cc1,inactive: 8.97%,–
COc1ccc(/C=N/n2cnn(Cc3ccccc3Cl)c2=S)cc1,–,"inconclusive: 63.1 µM [inhibitor, partial curve, poor fit]"
O=c1cc(CO)oc(C(Nc2ccccn2)c2cccc(F)c2)c1O (stereo not drawn),–,active: 15.8 µM
COc1cc(NC(=O)CN(C)Cc2cccc(F)c2)c(C)cc1[N+](=O)[O-],–,"inconclusive: 70.8 µM [inhibitor, single point]"
O=C(c1cccc(F)c1)N1CCC2(CC1)CN(c1ccc(-c3ccccc3)cc1)C2,inactive: -1.37%,–
Brc1ccc(-c2csc(NNC3=NCCCCC3)n2)cc1,–,"inconclusive: 79.4 µM [inhibitor, partial curve, poor fit]"
O=C(c1ccc(Br)cc1)N1CCC(c2nc3ccccc3s2)CC1,inactive: 8.75%,–
O=C(Nc1nc(-c2ccccc2)ns1)c1ccncc1,–,"inconclusive: 39.8 µM [inhibitor, single point]"

# From PubChem BioAssay AID504847 (National Center for Advancing Translational Sciences (NCATS), 2011)
